The results in this text go back to PMC11625814.

Protein sequences, listed by entry. Tags and fused reporters are not part of them.
UniProt Q2MJT0: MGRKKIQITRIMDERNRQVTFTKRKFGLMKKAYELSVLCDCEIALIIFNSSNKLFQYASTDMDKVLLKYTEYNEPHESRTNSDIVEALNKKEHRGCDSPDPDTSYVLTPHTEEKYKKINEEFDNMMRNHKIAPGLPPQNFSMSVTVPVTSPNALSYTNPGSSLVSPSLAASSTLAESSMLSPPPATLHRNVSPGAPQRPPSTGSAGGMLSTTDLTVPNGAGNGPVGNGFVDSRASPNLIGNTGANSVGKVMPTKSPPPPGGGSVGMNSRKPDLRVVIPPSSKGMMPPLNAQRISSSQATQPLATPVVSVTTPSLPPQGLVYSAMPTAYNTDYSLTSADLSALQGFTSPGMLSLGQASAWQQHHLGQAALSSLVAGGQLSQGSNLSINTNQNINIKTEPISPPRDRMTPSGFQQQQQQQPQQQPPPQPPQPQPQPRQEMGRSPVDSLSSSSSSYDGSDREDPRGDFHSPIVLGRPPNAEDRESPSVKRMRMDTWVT

No constants are given. Whether binding was seen depends on the method and setting. In cells and extracts the contact can be indirect. Some binding calls cover weakened binding; strength is not graded here. For part of these data: Sequences can lack the tags named with a protein.

In experiment [1] the target is mAKAPα (AKAP6), A-kinase anchoring protein (rat (endogenous in primary hippocampal neurons)) (UniProt Q9WVC7). Briefly: co-IP; 200 ug lysate protein of primary rat hippocampal neurons, anti-mAKAPα antibody overnight at 4°C, Protein A/G PLUS-Agarose, washed three times with PBS, immunoblot; steady state or 20 min 30 mM KCl; also with 5 uM cyclosporine A, mAKAPα shRNA lentivirus, AAV2-GFP-CBD or AAV2-GFP. (In western blotting, separated proteins are transferred to a membrane and probed.)

Experiment [2] has the same target. Briefly: co-IP; as a1 (anti-mAKAPα immunoprecipitate from primary rat hippocampal neurons, blot for NFATc4), with 1 mM EDTA to chelate Ca2+.
For experiment [3] the target is unchanged. Briefly: co-IP; 200 ug lysate protein of primary rat hippocampal neurons, anti-mAKAPα antibody overnight at 4°C, Protein A/G PLUS-Agarose, washed three times with PBS, immunoblot; steady state or 20 min 30 mM KCl; also with 5 uM cyclosporine A, mAKAPα shRNA lentivirus, AAV2-GFP-CBD or AAV2-GFP. The source holds these as a separate data set.
In experiment [4] the target is T1, GFP-(aa3-196), GFP-tagged peptide corresponding to amino acids 3-196 of mAKAPα (UniProt Q9WVC7).
T1 sequence: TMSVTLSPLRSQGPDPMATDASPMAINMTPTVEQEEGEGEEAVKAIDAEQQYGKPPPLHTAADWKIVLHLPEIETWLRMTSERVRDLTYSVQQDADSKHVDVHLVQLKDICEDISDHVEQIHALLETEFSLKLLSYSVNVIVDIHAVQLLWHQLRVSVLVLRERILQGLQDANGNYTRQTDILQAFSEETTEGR
Briefly: co-IP; COS-7 cells co-transfected with GFP-(aa3-196) and Flag-NFATc4, two days later immunoprecipitated with anti-GFP antibody and immunoblotted with anti-Flag antibody.

As to “MEF2A (myocyte enhancer factor-2A) (from UniProt Q2MJT0 1-495)”, the binding entry in experiment [1] was “binds”.
As for “calcineurin catalytic subunit Aα (CaNAα) (from UniProt P63329 1-521) (enzyme)”, the binding result in experiment [1] is listed as “binds”.

B1: NFATc4 (nuclear factor of activated T-cells c4) (protein, UniProt D3Z9H7 1-901)
chain: MGAASCEDEELEFKLVFGEEKEAPPLGPGGPGEELDSEDAPPCCRLALGEPLPYGAAPIGIPRPPPPRPGMHSPPPRPAPSPGTWESQPPRSVRLGGPGGTAGGTGGGRVLECPSIRITSISPTPDPPTSLEDAPETWGDGSPRDYPPPEGFGGYREAGGQGGGAFFSPSPGSSSLSSWSFFSDASDEAALYAACDEVESELNEAASRFGLSSPLPSPRASPRPWTPEDPWSLYGPSSGGRAPEDSWLLLSAPGPIPASPRPASPCGKRRYSSSGTPSSASPALSRRGSLGEEGPEPPPPPPLPLVRDPSSSGPFDYVGAPPTESVPQKTRRTSSEQAVALPRSEEPASCNGKLPSGTEDSVAAPGALRKEMAGMDYLAVPSPLAWSKARIGGHSPIFRTSALPPLDWPLPSQYEQLELRIEVQPRAHHRAHYETEGSRGAVKAAPGGHPVVKLLGYNEKPLTLQMFIGTADERSLRPHAFYQVHRITGKMVATASYEAVVSGTKVLEMTLLPENNMAANIDCAGILKLRNSDIELRKGETDIGRKNTRVRLVFRVHVPQGGGKVVSVQAASVPIECSQRSAQELPQVEAYSPSACSVRGGEELVLTGSNFLPDSKVVFIERGPDGKLQWEEEAAVNRLQSSEVTLTLTIPEYSNKRVSRPVQVYFYVSNGRRKRSPTQSFKFLPVIFKEEPLPDSSLRGFPSTSGPPFGPDMDFSPPRPPYPSYPHEDPAYETPYLSEGFGYSTPALYPQTGPPPSYRSGLRMFPETGGTTGCARLPSVSFLPRPFPGDQYGGQGSSFPLGLPFSPPAPFRPPLPSSPPLEDPFNPQSAVHPLPAEGYNEVGPGYTPGEGASEQEKSRGGYGSGFRDNVPIQGITLEEVSEIIGRDLSGFPARPGEEPPA
For B1, the binding result is recorded as “no binding (condition: with 1 mM EDTA)” in experiment [2] and “binds” in experiment [3].

B2: phosphorylated NFATc4 (S289) (protein, UniProt D3Z9H7 1-901)
chain: B1 chain
modifications: phosphoserine at 289
As to B2, the binding result in experiment [3] is “binds”.

B3: Flag-NFATc4 (protein, UniProt Q14934 1-902)
chain: MGAASCEDEELEFKLVFGEEKEAPPLGAGGLGEELDSEDAPPCCRLALGEPPPYGAAPIGIPRPPPPRPGMHSPPPRPAPSPGTWESQPARSVRLGGPGGGAGGAGGGRVLECPSIRITSISPTPEPPAALEDNPDAWGDGSPRDYPPPEGFGGYREAGGQGGGAFFSPSPGSSSLSSWSFFSDASDEAALYAACDEVESELNEAASRFGLGSPLPSPRASPRPWTPEDPWSLYGPSPGGRGPEDSWLLLSAPGPTPASPRPASPCGKRRYSSSGTPSSASPALSRRGSLGEEGSEPPPPPPLPLARDPGSPGPFDYVGAPPAESIPQKTRRTSSEQAVALPRSEEPASCNGKLPLGAEESVAPPGGSRKEVAGMDYLAVPSPLAWSKARIGGHSPIFRTSALPPLDWPLPSQYEQLELRIEVQPRAHHRAHYETEGSRGAVKAAPGGHPVVKLLGYSEKPLTLQMFIGTADERNLRPHAFYQVHRITGKMVATASYEAVVSGTKVLEMTLLPENNMAANIDCAGILKLRNSDIELRKGETDIGRKNTRVRLVFRVHVPQGGGKVVSVQAASVPIECSQRSAQELPQVEAYSPSACSVRGGEELVLTGSNFLPDSKVVFIERGPDGKLQWEEEATVNRLQSNEVTLTLTVPEYSNKRVSRPVQVYFYVSNGRRKRSPTQSFRFLPVICKEEPLPDSSLRGFPSASATPFGTDMDFSPPRPPYPSYPHEDPACETPYLSEGFGYGMPPLYPQTGPPPSYRPGLRMFPETRGTTGCAQPPAVSFLPRPFPSDPYGGRGSSFSLGLPFSPPAPFRPPPLPASPPLEGPFPSQSDVHPLPAEGYNKVGPGYGPGEGAPEQEKSRGGYSSGFRDSVPIQGITLEEVSEIIGRDLSGFPAPPGEEPPA
On to B3, for which the binding result in experiment [4] is “binds”.
